According to the supplement of paper PMC12067093, “Discovery and optimisation of a covalent ligand for TRIM25 and its application to targeted protein ubiquitination” (Chemical Science, 2025):
The list shows a part of the results.

By UniProt entry, the sequences of proteins in these tests, tags left out. Where a name states a change or a piece, a line headed by the entry shows the natural chain unless it says otherwise.
UniProt O00329: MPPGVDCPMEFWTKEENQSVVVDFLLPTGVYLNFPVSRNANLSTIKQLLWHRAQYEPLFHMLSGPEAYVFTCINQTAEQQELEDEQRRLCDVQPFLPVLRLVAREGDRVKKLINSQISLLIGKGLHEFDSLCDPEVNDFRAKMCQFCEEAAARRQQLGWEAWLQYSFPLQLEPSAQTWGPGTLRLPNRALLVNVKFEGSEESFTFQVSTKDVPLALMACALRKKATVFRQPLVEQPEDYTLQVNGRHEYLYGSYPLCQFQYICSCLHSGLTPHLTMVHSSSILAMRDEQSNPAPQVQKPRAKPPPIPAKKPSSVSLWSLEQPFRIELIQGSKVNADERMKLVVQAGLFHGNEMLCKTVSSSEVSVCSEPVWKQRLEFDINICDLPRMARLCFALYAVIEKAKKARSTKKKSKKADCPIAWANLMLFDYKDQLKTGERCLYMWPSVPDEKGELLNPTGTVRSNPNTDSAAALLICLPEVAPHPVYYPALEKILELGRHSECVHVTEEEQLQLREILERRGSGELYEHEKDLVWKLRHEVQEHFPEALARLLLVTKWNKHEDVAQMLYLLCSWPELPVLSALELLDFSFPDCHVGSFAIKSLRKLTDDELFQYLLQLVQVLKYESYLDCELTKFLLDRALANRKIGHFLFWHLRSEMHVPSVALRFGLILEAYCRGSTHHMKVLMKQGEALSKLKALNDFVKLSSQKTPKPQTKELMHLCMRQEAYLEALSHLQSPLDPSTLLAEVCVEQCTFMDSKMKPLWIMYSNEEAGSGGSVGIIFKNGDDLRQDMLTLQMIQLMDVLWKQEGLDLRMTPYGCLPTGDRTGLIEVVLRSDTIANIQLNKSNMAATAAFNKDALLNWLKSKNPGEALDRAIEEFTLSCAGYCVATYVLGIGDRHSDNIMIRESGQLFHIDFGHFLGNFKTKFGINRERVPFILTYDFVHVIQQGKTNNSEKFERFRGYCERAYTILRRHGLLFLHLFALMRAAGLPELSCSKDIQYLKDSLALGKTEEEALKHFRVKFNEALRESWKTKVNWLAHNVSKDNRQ
UniProt P54277: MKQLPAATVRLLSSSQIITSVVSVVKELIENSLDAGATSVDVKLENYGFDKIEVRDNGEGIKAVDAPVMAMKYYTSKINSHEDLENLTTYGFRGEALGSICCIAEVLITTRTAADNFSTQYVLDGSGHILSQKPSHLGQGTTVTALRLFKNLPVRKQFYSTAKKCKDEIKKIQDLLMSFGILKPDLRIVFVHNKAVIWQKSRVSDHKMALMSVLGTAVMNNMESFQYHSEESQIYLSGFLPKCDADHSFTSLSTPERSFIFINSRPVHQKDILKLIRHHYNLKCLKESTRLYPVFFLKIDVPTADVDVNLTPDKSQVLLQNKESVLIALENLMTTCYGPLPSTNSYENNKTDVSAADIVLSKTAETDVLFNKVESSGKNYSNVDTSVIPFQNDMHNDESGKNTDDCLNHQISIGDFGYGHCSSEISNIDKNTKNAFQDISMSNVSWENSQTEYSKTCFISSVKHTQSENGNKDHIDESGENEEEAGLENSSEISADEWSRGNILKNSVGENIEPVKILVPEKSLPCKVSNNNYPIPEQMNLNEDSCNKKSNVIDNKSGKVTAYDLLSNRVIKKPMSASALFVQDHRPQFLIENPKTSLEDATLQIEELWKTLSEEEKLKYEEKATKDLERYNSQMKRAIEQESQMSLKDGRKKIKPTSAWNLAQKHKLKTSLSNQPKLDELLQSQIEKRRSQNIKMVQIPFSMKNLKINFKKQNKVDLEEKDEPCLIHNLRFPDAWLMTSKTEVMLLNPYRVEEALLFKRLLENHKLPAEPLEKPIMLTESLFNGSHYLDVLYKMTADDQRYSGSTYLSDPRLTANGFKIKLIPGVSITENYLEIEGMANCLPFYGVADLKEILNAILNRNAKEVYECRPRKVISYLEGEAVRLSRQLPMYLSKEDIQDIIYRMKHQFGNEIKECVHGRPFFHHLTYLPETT
UniProt P14618, whole entry, looked up: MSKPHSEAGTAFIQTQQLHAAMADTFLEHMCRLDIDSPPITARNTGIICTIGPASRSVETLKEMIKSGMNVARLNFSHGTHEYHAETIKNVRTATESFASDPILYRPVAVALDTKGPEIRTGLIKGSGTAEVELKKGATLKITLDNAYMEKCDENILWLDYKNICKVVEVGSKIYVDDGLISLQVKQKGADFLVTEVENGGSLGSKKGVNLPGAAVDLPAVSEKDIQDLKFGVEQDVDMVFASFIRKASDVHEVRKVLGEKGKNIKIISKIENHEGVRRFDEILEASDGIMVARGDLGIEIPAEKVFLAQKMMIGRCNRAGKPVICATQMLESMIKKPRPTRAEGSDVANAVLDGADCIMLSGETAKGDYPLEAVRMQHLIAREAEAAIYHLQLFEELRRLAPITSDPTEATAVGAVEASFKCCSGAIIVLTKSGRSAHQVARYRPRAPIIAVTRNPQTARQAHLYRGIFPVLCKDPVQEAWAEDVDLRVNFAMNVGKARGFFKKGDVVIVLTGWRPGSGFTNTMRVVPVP
UniProt Q9Y263: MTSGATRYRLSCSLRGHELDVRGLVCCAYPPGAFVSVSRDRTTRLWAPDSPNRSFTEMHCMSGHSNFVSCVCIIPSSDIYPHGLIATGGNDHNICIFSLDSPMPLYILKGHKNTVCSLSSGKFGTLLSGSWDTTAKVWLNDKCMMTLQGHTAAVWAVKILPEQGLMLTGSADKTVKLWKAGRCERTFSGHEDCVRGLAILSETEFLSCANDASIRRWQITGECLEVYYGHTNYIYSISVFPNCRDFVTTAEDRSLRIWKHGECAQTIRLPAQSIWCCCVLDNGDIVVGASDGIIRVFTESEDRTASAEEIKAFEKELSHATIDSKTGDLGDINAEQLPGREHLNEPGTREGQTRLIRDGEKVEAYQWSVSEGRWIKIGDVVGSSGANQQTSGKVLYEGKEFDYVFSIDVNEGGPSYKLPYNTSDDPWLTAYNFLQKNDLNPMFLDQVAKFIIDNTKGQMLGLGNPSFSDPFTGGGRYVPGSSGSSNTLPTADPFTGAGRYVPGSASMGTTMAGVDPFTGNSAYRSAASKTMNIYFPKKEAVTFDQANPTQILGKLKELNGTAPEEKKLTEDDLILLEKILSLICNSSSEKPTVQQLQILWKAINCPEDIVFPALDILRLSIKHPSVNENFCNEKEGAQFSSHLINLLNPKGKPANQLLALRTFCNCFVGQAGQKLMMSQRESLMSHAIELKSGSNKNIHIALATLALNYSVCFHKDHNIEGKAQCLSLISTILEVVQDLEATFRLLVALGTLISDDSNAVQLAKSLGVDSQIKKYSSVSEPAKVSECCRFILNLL
UniProt O15031: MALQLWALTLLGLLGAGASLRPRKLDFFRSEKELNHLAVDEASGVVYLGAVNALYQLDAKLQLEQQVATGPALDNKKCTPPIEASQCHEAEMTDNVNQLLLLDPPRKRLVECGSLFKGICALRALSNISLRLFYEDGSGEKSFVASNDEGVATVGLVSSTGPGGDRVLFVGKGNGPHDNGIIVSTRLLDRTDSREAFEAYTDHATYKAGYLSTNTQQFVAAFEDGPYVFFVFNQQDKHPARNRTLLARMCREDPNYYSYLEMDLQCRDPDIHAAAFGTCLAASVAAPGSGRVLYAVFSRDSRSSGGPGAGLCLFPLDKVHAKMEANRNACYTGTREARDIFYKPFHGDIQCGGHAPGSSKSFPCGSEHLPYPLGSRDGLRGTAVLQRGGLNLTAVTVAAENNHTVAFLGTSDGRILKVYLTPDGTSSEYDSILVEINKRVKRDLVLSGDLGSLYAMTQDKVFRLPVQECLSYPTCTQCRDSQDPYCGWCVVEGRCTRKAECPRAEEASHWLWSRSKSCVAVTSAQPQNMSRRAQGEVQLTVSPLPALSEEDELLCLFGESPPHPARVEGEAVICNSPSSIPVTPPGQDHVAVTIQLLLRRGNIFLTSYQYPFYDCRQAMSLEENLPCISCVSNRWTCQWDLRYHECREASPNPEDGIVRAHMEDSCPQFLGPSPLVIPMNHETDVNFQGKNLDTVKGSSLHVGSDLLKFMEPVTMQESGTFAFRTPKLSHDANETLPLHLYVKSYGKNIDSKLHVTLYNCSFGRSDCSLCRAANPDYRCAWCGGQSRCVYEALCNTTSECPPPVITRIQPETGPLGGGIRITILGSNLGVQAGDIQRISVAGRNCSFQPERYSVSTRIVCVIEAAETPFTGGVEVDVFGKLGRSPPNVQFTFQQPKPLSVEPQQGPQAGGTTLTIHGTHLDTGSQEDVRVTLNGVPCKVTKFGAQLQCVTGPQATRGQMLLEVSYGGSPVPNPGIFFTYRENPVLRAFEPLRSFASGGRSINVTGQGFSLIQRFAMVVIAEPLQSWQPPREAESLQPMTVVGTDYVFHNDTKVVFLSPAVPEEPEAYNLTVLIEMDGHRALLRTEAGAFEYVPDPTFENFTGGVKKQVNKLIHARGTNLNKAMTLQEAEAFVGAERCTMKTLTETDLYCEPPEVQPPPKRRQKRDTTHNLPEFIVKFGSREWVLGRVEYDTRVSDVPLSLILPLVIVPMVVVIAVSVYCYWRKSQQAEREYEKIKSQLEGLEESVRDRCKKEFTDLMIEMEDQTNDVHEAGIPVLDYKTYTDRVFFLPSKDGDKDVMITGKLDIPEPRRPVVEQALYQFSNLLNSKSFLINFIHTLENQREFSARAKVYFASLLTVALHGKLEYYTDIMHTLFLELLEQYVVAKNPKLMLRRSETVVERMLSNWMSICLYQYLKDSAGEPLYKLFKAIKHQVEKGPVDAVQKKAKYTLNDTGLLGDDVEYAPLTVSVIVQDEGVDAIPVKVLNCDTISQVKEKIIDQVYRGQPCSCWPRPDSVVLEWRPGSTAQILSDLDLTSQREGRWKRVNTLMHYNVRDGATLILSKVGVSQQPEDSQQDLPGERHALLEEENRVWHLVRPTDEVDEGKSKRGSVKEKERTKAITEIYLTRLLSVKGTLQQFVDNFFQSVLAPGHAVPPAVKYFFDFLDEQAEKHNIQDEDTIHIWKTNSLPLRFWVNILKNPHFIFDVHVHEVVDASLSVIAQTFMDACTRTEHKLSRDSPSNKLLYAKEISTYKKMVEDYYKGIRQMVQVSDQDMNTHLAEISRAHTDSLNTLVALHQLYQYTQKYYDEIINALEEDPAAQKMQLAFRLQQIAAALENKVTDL
UniProt P29590: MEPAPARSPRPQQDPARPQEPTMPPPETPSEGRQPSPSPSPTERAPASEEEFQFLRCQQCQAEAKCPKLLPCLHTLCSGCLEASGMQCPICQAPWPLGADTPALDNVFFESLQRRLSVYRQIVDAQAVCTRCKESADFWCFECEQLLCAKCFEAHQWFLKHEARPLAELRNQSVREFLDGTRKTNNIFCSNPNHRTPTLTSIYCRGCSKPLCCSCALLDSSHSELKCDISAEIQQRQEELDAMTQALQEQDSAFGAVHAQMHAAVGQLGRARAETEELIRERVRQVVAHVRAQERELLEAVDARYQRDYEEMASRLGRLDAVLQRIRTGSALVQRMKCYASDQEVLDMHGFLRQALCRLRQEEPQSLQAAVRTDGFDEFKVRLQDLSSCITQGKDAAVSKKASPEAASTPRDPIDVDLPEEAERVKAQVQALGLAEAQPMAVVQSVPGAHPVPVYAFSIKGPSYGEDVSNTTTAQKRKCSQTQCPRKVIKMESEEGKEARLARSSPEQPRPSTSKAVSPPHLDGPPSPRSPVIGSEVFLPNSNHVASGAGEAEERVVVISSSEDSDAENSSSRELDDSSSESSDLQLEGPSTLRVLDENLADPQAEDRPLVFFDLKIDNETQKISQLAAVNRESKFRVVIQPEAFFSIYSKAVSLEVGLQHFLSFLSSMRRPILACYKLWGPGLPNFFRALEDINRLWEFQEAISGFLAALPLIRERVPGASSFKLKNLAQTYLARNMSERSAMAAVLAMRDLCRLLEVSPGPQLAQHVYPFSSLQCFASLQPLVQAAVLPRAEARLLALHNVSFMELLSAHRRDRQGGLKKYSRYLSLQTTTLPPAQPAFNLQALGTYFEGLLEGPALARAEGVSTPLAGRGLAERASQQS
UniProt Q8IYS1: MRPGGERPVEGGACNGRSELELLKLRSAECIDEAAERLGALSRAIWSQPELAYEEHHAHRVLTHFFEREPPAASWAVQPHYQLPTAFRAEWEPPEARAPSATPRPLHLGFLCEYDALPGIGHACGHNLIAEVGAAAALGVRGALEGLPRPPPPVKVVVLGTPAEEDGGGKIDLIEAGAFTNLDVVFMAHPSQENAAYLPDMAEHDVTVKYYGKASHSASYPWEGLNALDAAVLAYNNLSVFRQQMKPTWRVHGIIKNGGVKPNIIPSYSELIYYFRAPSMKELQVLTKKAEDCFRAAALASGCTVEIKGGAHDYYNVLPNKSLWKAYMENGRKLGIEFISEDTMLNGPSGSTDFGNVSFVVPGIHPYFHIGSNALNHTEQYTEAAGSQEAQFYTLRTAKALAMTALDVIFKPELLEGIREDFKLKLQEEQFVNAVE

Compound: CC1Cc2ccccc2N1C(=O)C1CCCN(C1)C(=O)CCl (mixture of isomers) [TRIM25 ligand 11 (diastereomer mixture)]
Assay: probe-labelled cysteine peptide fold change vs DMSO (competition) (log2 fold change); higher = less target engagement (more negative = stronger competition)
Details: THP-1, incubation time: 4 h
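Also: competitive chemoproteomic profiling in live THP-1 cells with an iodoacetamide desthiobiotin (IA-DTB) probe, comparing probe-labelled peptide intensities in compound-treated cells against DMSO-treated controls.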

| Target | probe-labelled cysteine peptide fold change (10 µM) | probe-labelled cysteine peptide fold change (50 µM) |
| --- | --- | --- |
| PIK3CD_O00329_416_KADCPIAWANLMLFDYK (UniProt O00329) | -0.0873 | -0.115 |
| PIN1_Q13526_113_SGEEDFESLASQFSDCSSAK (UniProt Q13526) | -0.166 | -0.217 |
| PMS1_P54277_457_TCFISSVK (UniProt P54277) | -0.0121 | -0.0876 |
| PLOD3_O60568_494_DVFSGSDTDPDMAFCK (UniProt O60568) | -0.109 | -0.117 |
| PLEKHA3_Q9HB20_216_SVSHPGSCSSER (UniProt Q9HB20) | 0.096 | -0.186 |
| PKM_P14618_49_NTGIICTIGPASR (UniProt P14618) | -0.0858 | -0.0306 |
| PLAA_Q9Y263_26_GLVCCAYPPGAFVSVSR (UniProt Q9Y263) | 0.00974 | -0.0656 |
| PLAA_Q9Y263_788_VSECCR (UniProt Q9Y263) | -0.0123 | 0.109 |
| PLRG1_O43660_468_VHAAVQPGSLDSESGIFACAFDQSESR (UniProt O43660) | 0.297 | 0.074 |
| PKM_P14618_423+424_CCSGAIIVLTK (UniProt P14618) | -0.0398 | -0.112 |
| PLXNB2_O15031_770_SDCSLCR (UniProt O15031) | -0.0206 | 0.183 |
| PLCB2_Q00722_945_GAAQLAELGPPGVGGVGACK (UniProt Q00722) | 0.0221 | -0.239 |
| PLAA_Q9Y263_193_TFSGHEDCVR (UniProt Q9Y263) | 0.0747 | -0.0639 |
| PLEC_Q15149_3821_EALEAESAWCYLYGTGSVAGVYLPGSR (UniProt Q15149) | 0.0207 | -0.00398 |
| PIK3CB_P42338_626_EYAVGCLR (UniProt P42338) | 0.19 | 0.113 |
| PJA2_O43164_48_HAYVSFKPCMTR (UniProt O43164) | -0.127 | -0.114 |
| PLXNB2_O15031_937_VTLNGVPCK (UniProt O15031) | 0.0926 | 0.112 |
| PLEC_Q15149_3295_SHRVPLDVACAR (UniProt Q15149) | -0.0879 | -0.0747 |
| PIK3CD_O00329_500_HSECVHVTEEEQLQLR (UniProt O00329) | -0.0604 | 0.0253 |
| PLXND1_Q9Y4D7_445_KLNIQLQPEQLDCGAAHLQHPLSILQPLK (UniProt Q9Y4D7) | 0.116 | 0.192 |

| Target | probe-labelled cysteine peptide fold change (10 µM) | probe-labelled cysteine peptide fold change (50 µM) |
| --- | --- | --- |
| PITRM1_Q5JRX3_869_THFLMPFPVNYVGECIR (UniProt Q5JRX3) | -0.05 | 0.0338 |
| PLCL2_Q9UPR0_414_GWLSIDGFTNYLMSPDCYIFDPEHKK (UniProt Q9UPR0) | 0.11 | -0.056 |
| PLD1_Q13393_1004_CLPNDEVHNLIQLR (UniProt Q13393) | 0.0737 | 0.261 |
| PMVK_Q15126_38_LGADVCAVLR (UniProt Q15126) | -0.0865 | -0.0199 |
| PML_P29590_338_CYASDQEVLDMHGFLR (UniProt P29590) | 0.0065 | -0.0375 |
| PKN3_Q6P5Z2_131_QGAENMTHTCASGTPK (UniProt Q6P5Z2) | 0.116 | 0.106 |
| PIK3R4_Q99570_899_SESSAGICVPLSTSSQVPEVTTVQNK (UniProt Q99570) | -0.0236 | -0.238 |
| PLXNB2_O15031_351_DIFYKPFHGDIQCGGHAPGSSK (UniProt O15031) | -0.0778 | -0.153 |
| PLEK_P08567_155+160_IFNHCFTGNCVIDWLVSNQSVR (UniProt P08567) | -0.164 | -0.276 |
| PNPLA6_Q8IY17_418_CVSMPGDISGLQGGPR (UniProt Q8IY17) | -0.113 | -0.0549 |
| PM20D2_Q8IYS1_303_AAALASGCTVEIK (UniProt Q8IYS1) | 0.154 | -0.0302 |
| PMS1_P54277_102_GEALGSICCIAEVLITTR (UniProt P54277) | -0.341 | 0.363 |
| PLEKHO2_Q8TD55_135_SCALEHVTR (UniProt Q8TD55) | -0.101 | -0.194 |
| PIKFYVE_Q9Y2I7_1498_QSLCEVLQAWNNR (UniProt Q9Y2I7) | -0.0183 | -0.0422 |
| PLEC_Q15149_3667_CVEDPETGLR (UniProt Q15149) | 0.0186 | 0.0799 |
| PLG_P00747_398_CQSWSSMTPHR (UniProt P00747) | 0.146 | -0.258 |
| PISD_Q9UG56_300_ELFCHNER (UniProt Q9UG56) | 0.0592 | 0.123 |
| PIP4K2C_Q8TBX8_176_CHGNTLLPQFLGMYR (UniProt Q8TBX8) | -0.125 | 0.22 |
| PML_P29590_143_ESADFWCFECEQLLCAK (UniProt P29590) | 0.0255 | 0.124 |

A few values from above:
Entry of PLEC_Q15149_3295_SHRVPLDVACAR (UniProt Q15149) under probe-labelled cysteine peptide fold change (50 µM): -0.0747
Entry of PIK3CD_O00329_416_KADCPIAWANLMLFDYK (UniProt O00329) under probe-labelled cysteine peptide fold change (50 µM): -0.115
